Patent US20170008959A1
These are yes or no findings as the source states them, for the method shown. Some entries that bind do so weakly or less than the wild type. Tags and fused reporters may be left off the sequences shown.

The chains behind the UniProt entries cited, without tags or fusion partners. Residues count along the entry.
UniProt Q9NQC3, residues 1055-1120: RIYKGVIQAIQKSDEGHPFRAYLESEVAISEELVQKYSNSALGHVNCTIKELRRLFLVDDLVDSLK

Biological target: AP-Nogo66 (Nogo-66 with an N-terminal alkaline phosphatase tag) (human) (UniProt Q9NQC3)
Test: competition ELISA: AP-Nogo66 0.1 nM with soluble His-NogoR, competing with plate-coated His-NogoR; AttoPhos readout

binding: binds
B1: His-NogoR fusion protein (receptor, human, UniProt Q9BZR6 27-447, looked up, not shown: small tags and cut ends)
chain: CPGACVCYNEPKVTTSCPQQGLQAVPVGIPAASQRIFLHGNRISHVPAASFRACRNLTILWLHSNVLARIDAAAFTGLALLEQLDLSDNAQLRSVDPATFHGLGRLHTLHLDRCGLQELGPGLFRGLAALQYLYLQDNALQALPDDTFRDLGNLTHLFLHGNRISSVPERAFRGLHSLDRLLLHQNRVAHVHPHAFRDLGRLMTLYLFANNLSALPTEALAPLRALQYLRLNDNPWVCDCRARPLWAWLQKFRGSSSEVPCSLPQRLAGRDLKRLAANDLQGCAVATGPYHPIWTGRATDEEPLGLPKCCQPDAADKASVLEPGRPASAGNALKGRVPPGDSPPGNGSGPRHINDSPFGTLPGSAEPPLTAVRPEGSEPPGFPTSGPRRRPGCSRKNRTRSHCRLGQAGSGGGGTGDSEGS
